# The list is a part of this screen's results and no random one: it gathers tests that were run many times, whatever their T/C, doses with no T/C, and many T/C values between a quarter and a half above the control. Further doses and runs are listed elsewhere. T/C gives the treated animals as a percentage of the vehicle group. Some entries give survivors of the animals treated and no T/C: the source files T/C as zero there, which appears to mark a toxic dose or a test without result, not a measured value. Some doses without a T/C left all or most animals alive at the check, yet need not have been tolerated: the source hardly ever lists a survival T/C far under the control, and the zero likely stands for such cases as well. Survivors were counted at the toxicity check, usually on the fifth day, unless a day is given; later deaths do not show. Schedules are NCI's codes, taken here to give the interval after Q, in days (D) or hours (H), and the number of doses after X. Some doses were run more than once; the results are listed from low to high. Signs of the kind (2×) give the number of equal values in this list. Where survival is the endpoint, the PubChem record calls one and a half times the control and up active, and a quarter to a half above the control has no call in these data; cut-offs in other NCI protocols can differ. Some T/C values are followed by the survivors on the day toxicity was checked, most often the fifth; without a count, all were alive then.
# Tested on: BDF1 mice, P388 leukemia ip, median survival T/C
# Assay: NCI In Vivo Anticancer Drug Screen. Data for tumor model P388 Leukemia (intraperitoneal) in B6D2F1 (BDF1) mice
# Details: T/C endpoint: median survival time, higher T/C = longer survival
# Method in brief: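 T/C = treated-group survival ÷ vehicle-control survival; tumour transplanted into mice before dosing.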
# [1] = dose: 200.0 mg/kg/injection, schedule: Q01DX005 (ip), vehicle: Klucel (hydroxypropylcellulose) (HPC)
# [2] = dose: 200.0 mg/kg/injection, schedule: Q01DX009 (ip), vehicle: Klucel (hydroxypropylcellulose) (HPC)
# [3] = dose: 400.0 mg/kg/injection, schedule: Q01DX005 (ip), vehicle: Klucel (hydroxypropylcellulose) (HPC)
structure (smiles),measurement,setting,value
CN(Cc1cnc2nc(N)nc(N)c2n1)c1c(Cl)cc(C(=O)NC(CCC(=O)O)C(=O)O)cc1Cl (centres undefined),T/C,"dose: 100.0 mg/kg/injection, schedule: Q04DX003 (ip), vehicle: Klucel (hydroxypropylcellulose) (HPC), evaluated on day 35",167 and 196 % of control
same,T/C,"dose: 200.0 mg/kg/injection, schedule: Q01DX001 (ip), vehicle: Klucel (hydroxypropylcellulose) (HPC), evaluated on day 30","106, 117 (2×), 119, 122, 125, 139, 142, 143, 146, 150 (2×), 157, 158 (2×), 160, 163 (3×), 165, 168, 173, 176, 182, 184, 189, 191, 196, 197 % of control"
same,T/C,"dose: 200.0 mg/kg/injection, schedule: Q01DX001 (ip), vehicle: Klucel (hydroxypropylcellulose) (HPC), evaluated on day 35",125 and 155 % of control
same,survivor count,"dose: 200.0 mg/kg/injection, schedule: Q01DX001 (ip), vehicle: Klucel (hydroxypropylcellulose) (HPC)",3 of 3
same,T/C,[1],"100, 132, 172, 180, 190, 191, 195 (2×), 203, 223, 227, 232, 236, 259 % of control"
same,survivor count,[1],"0 of 6, 1 of 3, 2 of 6, 2 of 3, 5 of 6, 3 of 3, 6 of 6 (2×)"
same,T/C,[2],"90, 93 (2×), 100, 169, 245 % of control"
same,survivor count,[2],"1 of 3, 3 of 6, 2 of 3, 4 of 6, 5 of 6, 3 of 3, 6 of 6"
same,T/C,"dose: 200.0 mg/kg/injection, schedule: Q04DX002 (ip), vehicle: Klucel (hydroxypropylcellulose) (HPC), evaluated on day 30","124, 132, 145, 148, 157, 158, 159, 163, 165, 174, 175, 177 (3×), 178 (2×), 182, 183, 189, 193 (2×), 203 (2×), 204, 205, 211 (2×), 216, 221, 225, 231, 247 % of control (2×)"
same,T/C,"dose: 200.0 mg/kg/injection, schedule: Q04DX002 (ip), vehicle: Klucel (hydroxypropylcellulose) (HPC), evaluated on day 35",198 % of control
same,T/C,"dose: 200.0 mg/kg/injection, schedule: Q04DX003 (ip), vehicle: Klucel (hydroxypropylcellulose) (HPC), evaluated on day 30","140 (2×), 146, 150 (2×), 169, 171, 182, 185, 186, 189 [5 of 6 alive], 190, 197, 200, 204, 205, 210 (2×), 211, 223, 226 (2×), 229, 232 (2×), 238, 247, 248, 250, 252, 256, 258, 263, 275 % of control"
same,T/C,"dose: 200.0 mg/kg/injection, schedule: Q04DX003 (ip), vehicle: Klucel (hydroxypropylcellulose) (HPC), evaluated on day 35",232 and 245 % of control [2 of 3 alive]
same,T/C,"dose: 400.0 mg/kg/injection, schedule: Q01DX001 (ip), vehicle: Klucel (hydroxypropylcellulose) (HPC), evaluated on day 30","114, 115, 118, 122, 143, 152, 155 (2×), 156, 157, 158, 165, 169, 176, 178, 180, 185, 187 (2×), 190, 197, 198, 199, 200, 201 (2×), 206, 213, 252 % of control"
same,T/C,"dose: 400.0 mg/kg/injection, schedule: Q01DX001 (ip), vehicle: Klucel (hydroxypropylcellulose) (HPC), evaluated on day 35",133 [2 of 3 alive] and 169 % of control
same,survivor count,"dose: 400.0 mg/kg/injection, schedule: Q01DX001 (ip), vehicle: Klucel (hydroxypropylcellulose) (HPC)",3 of 3
same,T/C,[3],250 % of control
same,survivor count,[3],"0 of 3, 1 of 6, 1 of 3, 2 of 6, 2 of 3, 4 of 6 (2×), 5 of 6, 3 of 3, 6 of 6"
same,survivor count,"dose: 400.0 mg/kg/injection, schedule: Q01DX009 (ip), vehicle: Klucel (hydroxypropylcellulose) (HPC)","0 of 3, 1 of 3, 2 of 6, 3 of 6, 2 of 3, 4 of 6, 5 of 6, 3 of 3, 6 of 6"
same,survivor count,"dose: 400.0 mg/kg/injection, schedule: Q01DX009 (ip), vehicle: saline with Tween-80",5 of 6
same,T/C,"dose: 400.0 mg/kg/injection, schedule: Q04DX002 (ip), vehicle: Klucel (hydroxypropylcellulose) (HPC), evaluated on day 30","89, 148 [5 of 6 alive], 153 (2×), 162, 170 (2×), 174, 178, 180, 182, 184, 202, 206 [2 of 2 alive], 210, 212, 213, 223, 224, 228, 233, 238, 239, 241, 243, 253, 259 [5 of 6 alive], 270, 275, 276, 281, 284, 306 % of control"
same,T/C,"dose: 400.0 mg/kg/injection, schedule: Q04DX002 (ip), vehicle: Klucel (hydroxypropylcellulose) (HPC), evaluated on day 35",299 % of control
same,T/C,"dose: 400.0 mg/kg/injection, schedule: Q04DX003 (ip), vehicle: Klucel (hydroxypropylcellulose) (HPC), evaluated on day 30","123, 139 (2×), 144, 148, 157 (2×), 162, 176, 186, 204, 208, 208 [5 of 6 alive], 210, 215, 226, 228 (2×), 229 (2×), 230, 231, 247, 251, 252, 254 (2×), 260, 265, 267, 272, 276 [5 of 6 alive], 282 % of control"
same,T/C,"dose: 400.0 mg/kg/injection, schedule: Q04DX003 (ip), vehicle: Klucel (hydroxypropylcellulose) (HPC), evaluated on day 35",309 and 312 % of control
same,survivor count,"dose: 400.0 mg/kg/injection, schedule: Q04DX003 (ip), vehicle: Klucel (hydroxypropylcellulose) (HPC)",2 of 3
